Laboratory results published in PubChem BioAssay AID504834 (National Center for Advancing Translational Sciences (NCATS), 2011).
Hit rate of the full screen: of about 320,000 compounds, about 22,000 (6.9%) were called active. The shares of active, inactive and inconclusive entries below differ from those in the screen. Calls follow the shape of the dose curve; as a rule, active = well fitted inhibition curve with a large enough effect; inconclusive = small, poorly fitted or top-dose-only effect, or another doubt; inactive = no such curve, though single readings can be large or run the other way. Where the call is inconclusive, the potency comes from a doubtful curve fit.

Test: Primary qHTS for delayed death inhibitors of the malarial parasite plastid, 96 hour incubation
Conditions: P. falciparum luciferase reporter growth; series mostly up to 28.7 µM; activity change, negative = inhibition: at the top concentration
Outline: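 Readout is luminescence from an integrated firefly luciferase in P. falciparum. Red cells, 2% hematocrit and 0.05% parasitemia final, were cultured with compound through two parasite generations (96 hours) at 37 C, 5% CO2.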
% is scaled to controls: 0 for no effect and ±100 for the full control effect; potency is read from the fitted curve at half-maximal effect.

| Structure (SMILES) | activity change, negative = inhibition | Potency |
| --- | --- | --- |
| Cc1cccc(OCC(=O)NC(Cc2c[nH]c3ccccc23)C(=O)O)c1C (stereo not drawn) | inactive: 21.6% |  |
| COc1cccc(C(=O)NNC(=O)Cc2csc(N)n2)c1 |  | inconclusive: 8.28 µM [inhibitor, partial curve, poor fit] |
| COc1cccc(C(=O)NCCSc2c(C)[nH]c3ccccc23)c1OC |  | inconclusive: 11.7 µM [inhibitor, partial curve, poor fit] |
| COc1cccc(CNCCc2ccc3c(c2)OCO3)c1OC |  | inconclusive: 5.86 µM [inhibitor, single point] |
| CCOc1cccc(NC(=O)c2ccc(S(=O)(=O)N3CCCC3)cc2)c1 |  | inconclusive: 5.86 µM [inhibitor, partial curve] |
| Cc1cc(S(=O)(=O)N2CCCCC2CCNC(=O)C(=O)NC2CC2)ccc1F (stereo not drawn) |  | inconclusive: 6.57 µM [inhibitor, partial curve] |
| CC(C)Oc1ccc(S(=O)(=O)N2CCOCC2)cc1NC(=O)CC1CCCC1 |  | active: 8.28 µM |
| COc1ccccc1C(=O)NC1CCN(C(=S)NCCc2ccccc2)CC1 | inactive: -2.34% |  |
| CCOc1cccc(C(=O)NC2CCCCC2)c1 | inactive: 12.2% |  |
| COc1ccc(C[C@H]2CN3C(=NC[C@@H]3C(C)C)N2C[C@H](C)NC(=O)c2ccc(C)c(Br)c2)cc1 |  | active: 2.94 µM |
| O=C1OC2(c3ccccc3)C3CCCC2C13 |  | inconclusive: 18.5 µM [inhibitor, single point] |
| Cc1onc(-c2ccccc2Cl)c1C(=O)NC(=S)Nc1ccc(C(C)C)cc1 |  | active: 13.1 µM |
| O=C(Nc1cc(Br)ccc1O)c1cc(-c2ccccc2)on1 |  | inconclusive: 14.7 µM [inhibitor, partial curve, poor fit] |
| COc1ccc(CC(=O)NCc2ccc(F)cc2)cc1S(=O)(=O)N1CCOCC1 |  | inconclusive: 18.5 µM [inhibitor, single point] |
| CCC(=O)Nc1ccc(C(=O)NNC(=O)Cc2ccccc2)cc1 | inactive: -2.83% |  |
| CCN(CC)CCC(c1cc(OC)c(OC)c(OC)c1)c1c(O)cc(OC)cc1OC (stereo not drawn) |  | active: 2.94 µM |
| CCN1CCCC1CNC(=O)c1[nH]c2ccc(OC)cc2c1C (stereo not drawn) |  | inconclusive: 0.415 µM [inhibitor, full curve, poor fit] |
| CCc1ccc(NC(=O)C(=O)N/N=C(\C)CC(=O)Nc2ccccn2)cc1 |  | inconclusive: 18.5 µM [inhibitor, single point] |
| CCOC(=O)C(Nc1ccc2ccccc2c1)C(=O)OCC |  | inconclusive: 14.7 µM [inhibitor, partial curve, poor fit] |
| Cc1nn2c(NCc3cccnc3)c3c(nc2c1-c1ccccc1)CCC3 |  | active: 1.47 µM |
| Cc1ccc(C(=O)Nc2ccccc2)cc1S(=O)(=O)N1CCN(C)CC1 |  | inconclusive: 0.37 µM [inhibitor, partial curve, poor fit] |
| COc1c(C)cc(C(=O)C2CCCN(C(=O)c3ccc4cc[nH]c4c3)C2)cc1C (stereo not drawn) |  | inconclusive: 2.33 µM [inhibitor, full curve, poor fit] |
| Cc1ccc2[nH]c(C(=O)Nc3ccc(F)cc3)cc2c1 |  | active: 8.28 µM |
| FC(F)(F)c1nnc2ccc(NCn3nnc4ccccc43)nn12 |  | inconclusive: 13.1 µM [inhibitor, single point] |

| Structure (SMILES) | activity change, negative = inhibition | Potency |
| --- | --- | --- |
| O=C(CCCc1ccccc1)NCc1ccccc1Cl | inactive: -7.24% |  |
| O=C(NC1CCCC1)C(=O)N(c1ccccc1F)C(C(=O)NCC1CCCO1)c1cccs1 (stereo not drawn) |  | inconclusive: 0.208 µM [inhibitor, full curve, poor fit] |
| CCOC(=O)c1nn(-c2ccccc2)c(=O)cc1SC(C)C |  | inconclusive: 9.28 µM [inhibitor, partial curve, poor fit] |
| O=C(NC(=S)NNC(=O)c1ccco1)c1ccccc1 |  | inconclusive: 18.5 µM [inhibitor, single point] |
| COC(=O)c1cn(CCOc2ccc(C)cc2)c2ccccc12 |  | inconclusive: 13.1 µM [inhibitor, single point] |
| COCc1cc(C)nc2sc(C(=O)Nc3ccc(C(=O)OC)cc3)c(N)c12 | inactive: 7.51% |  |
| COCCNc1nc2c(c(=O)n(Cc3ccc(OC)cc3)c(=O)n2C)n1C | inactive: 28.7% |  |
| O=C(NCc1ccco1)c1noc2c1CCCCC2 |  | inconclusive: 10.4 µM [inhibitor, single point] |
| c1ccc(-c2cc(-c3ccccc3)[n+](-c3ccccc3)c(-c3ccccc3)c2)cc1 |  | active: 0.37 µM |
| CC(Sc1nnc2c(n1)C1CCC2(C)C1(C)C)C(=O)Nc1ccccc1 (stereo not drawn) |  | inconclusive: 14.7 µM [inhibitor, single point] |
| O=C(NC1CCCCC1)C1CCC(=O)N(C2CC2)C1 (stereo not drawn) | inactive: -28.3% |  |
| O=C1c2ccccc2C(=O)N1CCc1c[nH]c2ccccc12 | inactive: 0% |  |
| CC1CN(C(=S)SCCN2C(=O)CCC2=O)CC(C)O1 (stereo not drawn) |  | inconclusive: 13.1 µM [inhibitor, single point] |
| CC(=O)Nc1ccc(Oc2sc(C(=O)c3ccccc3)c(N)c2C#N)cc1 |  | inconclusive: 10.4 µM [inhibitor, single point] |
| CCOCCn1c(C(C)O)nc2ccccc21 (stereo not drawn) |  | active: 3.7 µM |
| O=C(COC(=O)CCc1nc2ccccc2s1)NCc1ccco1 | inactive: 34.9% |  |
| Cc1ccc(NC(=O)COC(=O)[C@H](C)NC(=O)c2ccccc2)cc1S(=O)(=O)N1CCOCC1 | inactive: 42.6% |  |
| Nc1ncnc2c1C1(CCCCC1)Cc1ccccc1-2 |  | active: 8.28 µM |
| CCOC(=O)N1CCN(C(=O)c2ccc(CN(c3ccc(C)c(C)c3)S(C)(=O)=O)cc2)CC1 | inactive: -3.85% |  |
| CC(C)NC(=O)C1(S(=O)(=O)c2ccccc2)CC=CC1 | inactive: -13.9% |  |
| COc1ccc(/C=C/C(=O)NCCN=C2NS(=O)(=O)c3ccccc32)cc1 | inactive: 120% |  |
| COCCN(C(=O)CN1CCN(S(=O)(=O)c2ccc(F)cc2)CC1)c1c(N)n(Cc2ccccc2)c(=O)[nH]c1=O | inactive: 3.16% |  |
| C=CCOCCN1C(=O)C2C(c3ccccc3)C=CC(c3ccccc3)C2C1=O (stereo not drawn) |  | inconclusive: 5.86 µM [inhibitor, partial curve, poor fit] |
| C=CCSC1=C(C#N)C(c2ccccc2Cl)C(C(=O)c2cccs2)C(O)(C(F)(F)F)N1 (stereo not drawn) |  | inconclusive: 10.4 µM [inhibitor, partial curve, poor fit] |

A section from the list above:

| Structure (SMILES) | activity change, negative = inhibition | Potency |
| --- | --- | --- |
| O=C(NCc1ccco1)c1noc2c1CCCCC2 |  | inconclusive: 10.4 µM [inhibitor, single point] |
| c1ccc(-c2cc(-c3ccccc3)[n+](-c3ccccc3)c(-c3ccccc3)c2)cc1 |  | active: 0.37 µM |
| CC(Sc1nnc2c(n1)C1CCC2(C)C1(C)C)C(=O)Nc1ccccc1 (stereo not drawn) |  | inconclusive: 14.7 µM [inhibitor, single point] |
